Drawing on article PMC6746821, this text covers binding for three molecules.

The chains behind the UniProt entries cited, without tags or fusion partners.
UniProt O75530: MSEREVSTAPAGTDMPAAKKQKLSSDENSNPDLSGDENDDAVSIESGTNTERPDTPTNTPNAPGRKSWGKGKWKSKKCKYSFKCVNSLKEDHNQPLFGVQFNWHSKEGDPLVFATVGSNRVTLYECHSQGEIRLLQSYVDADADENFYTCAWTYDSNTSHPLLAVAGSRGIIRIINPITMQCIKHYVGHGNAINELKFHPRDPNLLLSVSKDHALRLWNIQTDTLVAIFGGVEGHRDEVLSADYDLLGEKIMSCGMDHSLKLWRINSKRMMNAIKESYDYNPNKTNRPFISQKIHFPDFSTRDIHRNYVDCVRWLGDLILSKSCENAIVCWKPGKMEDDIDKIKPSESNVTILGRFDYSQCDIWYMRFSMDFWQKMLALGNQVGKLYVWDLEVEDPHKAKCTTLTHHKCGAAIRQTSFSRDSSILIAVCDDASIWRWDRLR
UniProt Q15022: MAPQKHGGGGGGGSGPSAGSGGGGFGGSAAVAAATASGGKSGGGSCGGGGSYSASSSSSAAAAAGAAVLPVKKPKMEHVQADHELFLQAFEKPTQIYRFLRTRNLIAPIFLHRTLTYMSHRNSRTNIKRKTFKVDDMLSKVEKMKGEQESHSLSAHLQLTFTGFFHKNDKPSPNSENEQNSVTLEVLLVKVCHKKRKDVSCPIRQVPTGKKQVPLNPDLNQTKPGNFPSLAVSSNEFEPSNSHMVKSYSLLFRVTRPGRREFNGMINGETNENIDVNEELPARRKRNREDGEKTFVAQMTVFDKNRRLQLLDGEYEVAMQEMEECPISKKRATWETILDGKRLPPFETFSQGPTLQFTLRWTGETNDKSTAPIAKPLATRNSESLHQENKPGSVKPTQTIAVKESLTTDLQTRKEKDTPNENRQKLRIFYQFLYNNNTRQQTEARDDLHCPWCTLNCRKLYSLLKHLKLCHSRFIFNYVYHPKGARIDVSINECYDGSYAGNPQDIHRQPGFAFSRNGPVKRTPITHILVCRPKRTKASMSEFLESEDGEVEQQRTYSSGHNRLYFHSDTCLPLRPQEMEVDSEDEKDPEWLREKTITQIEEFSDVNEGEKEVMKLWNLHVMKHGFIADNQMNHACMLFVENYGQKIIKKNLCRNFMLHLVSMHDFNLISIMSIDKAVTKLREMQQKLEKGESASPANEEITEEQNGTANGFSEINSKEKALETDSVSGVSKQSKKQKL

The target in test [1] is T1, Protein kinase C (PKC)-interacting cousin of thioredoxin (PICOT) (human (endogenous in Jurkat)) (UniProt O76003).
T1 sequence: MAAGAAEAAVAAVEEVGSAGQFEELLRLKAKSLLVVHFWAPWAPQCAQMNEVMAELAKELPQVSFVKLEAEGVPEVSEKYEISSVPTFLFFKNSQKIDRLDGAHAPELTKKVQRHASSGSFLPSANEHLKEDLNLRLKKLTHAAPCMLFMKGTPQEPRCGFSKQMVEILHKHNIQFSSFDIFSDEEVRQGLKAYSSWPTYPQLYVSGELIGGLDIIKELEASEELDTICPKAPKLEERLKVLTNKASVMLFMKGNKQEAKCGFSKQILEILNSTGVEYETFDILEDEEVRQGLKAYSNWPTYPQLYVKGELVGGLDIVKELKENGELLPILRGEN
Kind of test: co-IP; protein-protein ChIP: Jurkat cells fixed in 1% formaldehyde for 10 min, sonicated chromatin lysate, precleared, incubated overnight at 4 °C with protein G-sepharose bead-immobilized mouse anti-PICOT mAbs or normal mouse IgG; washes with low-salt, high-salt, LiCl and Tris-EDTA buffers; immunoblot. (A western blot detects proteins with antibodies after separation by electrophoresis.)

Test [2] concerns the target embryonic ectoderm development (EED) protein (human (endogenous in Jurkat)) (UniProt O75530). Kind of test: co-IP; reciprocal protein-protein ChIP: Jurkat T cell chromatin lysates, immunoprecipitation with anti-EED Abs; immunoblot for PICOT and EZH2.

These are yes or no findings as the source states them, for the method shown. In cells and extracts the contact can be indirect. Some binding calls cover weakened binding; strength is not graded here.

In the case of SUZ12 (from UniProt Q15022 1-739), the binding entry in test [1] is recorded as “no binding”.
Same read-out and setting: with “embryonic ectoderm development (EED) protein (from UniProt O75530 1-441)” the entry was “binds”.

B1: Protein kinase C (PKC)-interacting cousin of thioredoxin (PICOT) (protein, UniProt O76003 1-335)
chain: MAAGAAEAAVAAVEEVGSAGQFEELLRLKAKSLLVVHFWAPWAPQCAQMNEVMAELAKELPQVSFVKLEAEGVPEVSEKYEISSVPTFLFFKNSQKIDRLDGAHAPELTKKVQRHASSGSFLPSANEHLKEDLNLRLKKLTHAAPCMLFMKGTPQEPRCGFSKQMVEILHKHNIQFSSFDIFSDEEVRQGLKAYSSWPTYPQLYVSGELIGGLDIIKELEASEELDTICPKAPKLEERLKVLTNKASVMLFMKGNKQEAKCGFSKQILEILNSTGVEYETFDILEDEEVRQGLKAYSNWPTYPQLYVKGELVGGLDIVKELKENGELLPILRGEN
B1: in test [2], the binding result is listed as “binds”.
